Reference: patent US5589337A (priority 1995, dated 1996)
Where a name gives a salt, the structure may show the parent alone.

What was measured:
[1] = test system: zwf promoter; assay: zwf promoter-lacZ induction (preferred kit, β-galactosidase); settings: Escherichia coli, read-out: Fold Induction, zwf
[2] = test system: topA promoter; assay: topA promoter-lacZ induction (preferred kit, β-galactosidase); settings: Escherichia coli, read-out: Fold Induction, topA
[3] = test system: aniG promoter; assay: aniG promoter-lacZ induction (preferred kit, β-galactosidase); settings: Salmonella enterica, read-out: Fold Induction, aniG

SMILES: CN(C)CCN(Cc1cccs1)c1ccccn1 [Methapyrilene HCl]
- fold induction at 2000 µg/mL [1]: 2.7
- fold induction at 2000 µg/mL [2]: 1.5
- fold induction at 400 µg/mL [3]: 2.3
